PubChem BioAssay AID1508597 – Cure First | 2020
The whole screen tested about 2,100 reagents; this is a part drawn at random. 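Calls flag viability under 80% in either arm, not effects specific to rucaparib; the reference for percent is not stated.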 Entries without a mark were called inactive. The record does not give: the 100% reference.

Test: 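Genes whose silencing sensitises or protects ovarian cancer cells against rucaparib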 (primary screen)
Cell system: human ovarian carcinoma lines grown from tumours: OCI-P5x (papillary serous) and OCI-C5x (clear cell)
Reagent: siRNA pool against human genes, 1.25 pmol siRNA per well
Duration: 72 h or 96 h, depending on the cell culture
Challenge: rucaparib 20 µM (about IC30) or vehicle, present until read-out
Measured: 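Luminescent ATP-based viability assay read 72 or 96 h after transfection, depending on culture, given as normalised percent viability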
Reading the numbers: viability, normalised: higher = more viable cells remaining
Hit rule: 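a well counts as a hit if its normalised viability is under 80 percent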
Meaning of the calls: active = viability under 80%; inactive = viability 80% or more

ENOSF1, rucaparib or vehicle Rucaparib, cell line OCI-C5x (clear cell), technical replicate 1: viability, normalised (%) = 89.4
ENOSF1, rucaparib or vehicle Rucaparib, cell line OCI-C5x (clear cell), technical replicate 2: viability, normalised (%) = 75.3 (active)
ENOSF1, rucaparib or vehicle Rucaparib, cell line OCI-C5x (clear cell), technical replicate 3: viability, normalised (%) = 97.8
ENOSF1, rucaparib or vehicle Rucaparib, cell line OCI-P5x (serous), technical replicate 1: viability, normalised (%) = 88.6
ENOSF1, rucaparib or vehicle Rucaparib, cell line OCI-P5x (serous), technical replicate 2: viability, normalised (%) = 113
ENOSF1, rucaparib or vehicle Rucaparib, cell line OCI-P5x (serous), technical replicate 3: viability, normalised (%) = 120
ENOSF1, rucaparib or vehicle Vehicle, cell line OCI-C5x (clear cell), technical replicate 1: viability, normalised (%) = 85.4
ENOSF1, rucaparib or vehicle Vehicle, cell line OCI-C5x (clear cell), technical replicate 2: viability, normalised (%) = 71.1 (active)
ENOSF1, rucaparib or vehicle Vehicle, cell line OCI-C5x (clear cell), technical replicate 3: viability, normalised (%) = 81
ENOSF1, rucaparib or vehicle Vehicle, cell line OCI-P5x (serous), technical replicate 1: viability, normalised (%) = 72.4 (active)
ENOSF1, rucaparib or vehicle Vehicle, cell line OCI-P5x (serous), technical replicate 2: viability, normalised (%) = 106
ENOSF1, rucaparib or vehicle Vehicle, cell line OCI-P5x (serous), technical replicate 3: viability, normalised (%) = 110

Continued (2 carried over from the part before).
ENOSF1, rucaparib or vehicle Vehicle, cell line OCI-P5x (serous), technical replicate 2: viability, normalised (%) = 106
ENOSF1, rucaparib or vehicle Vehicle, cell line OCI-P5x (serous), technical replicate 3: viability, normalised (%) = 110
IFNAR2, rucaparib or vehicle Rucaparib, cell line OCI-C5x (clear cell), technical replicate 1: viability, normalised (%) = 75.4 (active)
IFNAR2, rucaparib or vehicle Rucaparib, cell line OCI-C5x (clear cell), technical replicate 2: viability, normalised (%) = 72.9 (active)
IFNAR2, rucaparib or vehicle Rucaparib, cell line OCI-C5x (clear cell), technical replicate 3: viability, normalised (%) = 57.9 (active)
IFNAR2, rucaparib or vehicle Rucaparib, cell line OCI-P5x (serous), technical replicate 1: viability, normalised (%) = 90
IFNAR2, rucaparib or vehicle Rucaparib, cell line OCI-P5x (serous), technical replicate 2: viability, normalised (%) = 88
IFNAR2, rucaparib or vehicle Rucaparib, cell line OCI-P5x (serous), technical replicate 3: viability, normalised (%) = 79.2 (active)
IFNAR2, rucaparib or vehicle Vehicle, cell line OCI-C5x (clear cell), technical replicate 1: viability, normalised (%) = 67.4 (active)
IFNAR2, rucaparib or vehicle Vehicle, cell line OCI-C5x (clear cell), technical replicate 2: viability, normalised (%) = 64.2 (active)
IFNAR2, rucaparib or vehicle Vehicle, cell line OCI-C5x (clear cell), technical replicate 3: viability, normalised (%) = 79.8 (active)
IFNAR2, rucaparib or vehicle Vehicle, cell line OCI-P5x (serous), technical replicate 1: viability, normalised (%) = 99
IFNAR2, rucaparib or vehicle Vehicle, cell line OCI-P5x (serous), technical replicate 2: viability, normalised (%) = 86.9
IFNAR2, rucaparib or vehicle Vehicle, cell line OCI-P5x (serous), technical replicate 3: viability, normalised (%) = 102
TNP1, rucaparib or vehicle Rucaparib, cell line OCI-C5x (clear cell), technical replicate 1: viability, normalised (%) = 75.2 (active)
TNP1, rucaparib or vehicle Rucaparib, cell line OCI-C5x (clear cell), technical replicate 2: viability, normalised (%) = 74.1 (active)
TNP1, rucaparib or vehicle Rucaparib, cell line OCI-C5x (clear cell), technical replicate 3: viability, normalised (%) = 50.5 (active)
TNP1, rucaparib or vehicle Rucaparib, cell line OCI-P5x (serous), technical replicate 1: viability, normalised (%) = 57.5 (active)
TNP1, rucaparib or vehicle Rucaparib, cell line OCI-P5x (serous), technical replicate 2: viability, normalised (%) = 58.6 (active)
TNP1, rucaparib or vehicle Rucaparib, cell line OCI-P5x (serous), technical replicate 3: viability, normalised (%) = 49.4 (active)
TNP1, rucaparib or vehicle Vehicle, cell line OCI-C5x (clear cell), technical replicate 1: viability, normalised (%) = 54.1 (active)
TNP1, rucaparib or vehicle Vehicle, cell line OCI-C5x (clear cell), technical replicate 2: viability, normalised (%) = 58 (active)
TNP1, rucaparib or vehicle Vehicle, cell line OCI-C5x (clear cell), technical replicate 3: viability, normalised (%) = 41.1 (active)
TNP1, rucaparib or vehicle Vehicle, cell line OCI-P5x (serous), technical replicate 1: viability, normalised (%) = 66.3 (active)
TNP1, rucaparib or vehicle Vehicle, cell line OCI-P5x (serous), technical replicate 2: viability, normalised (%) = 95.4
TNP1, rucaparib or vehicle Vehicle, cell line OCI-P5x (serous), technical replicate 3: viability, normalised (%) = 119
